Over roughly 33,000 sequences, “E-score (-0.5 to 0.5)” has its median near -0.016; the highest 2% begin near 0.3. Some of the results follow.
The sequences below were run against T1, Yer184c (UniProt P39961) (assay: PBM E-score (8-mer binding enrichment) (E-score (-0.5 to 0.5)); higher = stronger / more preferred TF binding). Settings: protein concentration: 100 nM; construct: GST-full length.
T1 sequence: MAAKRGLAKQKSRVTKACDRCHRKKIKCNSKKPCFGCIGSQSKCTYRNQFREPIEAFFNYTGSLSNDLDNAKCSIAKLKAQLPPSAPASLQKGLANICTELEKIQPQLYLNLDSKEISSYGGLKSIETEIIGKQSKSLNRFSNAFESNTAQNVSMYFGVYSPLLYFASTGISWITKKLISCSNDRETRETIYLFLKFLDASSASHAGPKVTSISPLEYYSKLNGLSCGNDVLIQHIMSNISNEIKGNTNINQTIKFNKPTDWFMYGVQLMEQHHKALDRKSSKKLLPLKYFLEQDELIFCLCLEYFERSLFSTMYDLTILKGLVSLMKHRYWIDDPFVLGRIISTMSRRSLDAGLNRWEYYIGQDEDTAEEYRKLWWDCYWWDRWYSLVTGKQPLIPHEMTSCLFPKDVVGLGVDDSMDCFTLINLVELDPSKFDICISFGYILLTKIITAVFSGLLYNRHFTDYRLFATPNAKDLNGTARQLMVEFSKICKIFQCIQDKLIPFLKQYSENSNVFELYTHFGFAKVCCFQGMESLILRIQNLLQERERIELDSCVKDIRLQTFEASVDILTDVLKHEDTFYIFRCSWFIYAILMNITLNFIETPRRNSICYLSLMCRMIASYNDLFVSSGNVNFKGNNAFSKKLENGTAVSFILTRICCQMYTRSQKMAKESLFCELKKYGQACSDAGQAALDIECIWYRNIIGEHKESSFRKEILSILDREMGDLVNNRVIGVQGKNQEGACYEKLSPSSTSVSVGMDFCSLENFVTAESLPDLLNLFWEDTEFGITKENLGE
Experimental: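 Universal 'all 10-mer' protein binding microarrays (Agilent AMADID 015681) probed with GST-tagged S. cerevisiae TFs (full-length or DBD) made by in vitro transcription/translation (PURExpress), about 100-200 nM. Bound TF was detected with fluorescent anti-GST. Each ungapped 8-mer (which stands for itself and its reverse complement) is scored by the PBM enrichment score (E-score), a modified Wilcoxon-Mann-Whitney statistic from -0.5 to +0.5, computed with the Universal PBM Analysis Suite. Scale: above 0.35 generally sequence-specific binding.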

First: AACTAAGG
Second: AAGGCGTG
The “PBM E-score” value of the first is higher: 0.048 for the first, -0.149 for the second.

First: GGCTTTGA
Second: CGACCCTC
The “PBM E-score” value of the first is higher: 0.162 for the first, -0.0951 for the second.

Going from GACGCCCA to AGGCGAAC, the “PBM E-score” value rises from -0.164 to -0.0698.

First: GAGAAGCA
Second: CTAATAAA
The “PBM E-score” value of the first is lower: -0.122 for the first, 0.0623 for the second.

Compared with TGTGAACA, CACCTTAA is lower in “PBM E-score” value: 0.0218 for the first, -0.145 for the second.

Going from GTGTTGGA to CGGGTCAA, the “PBM E-score” value rises from -0.109 to 0.239.

Going from GTCGACAC to CATCGTAC, the “PBM E-score” value falls from 0.105 to -0.109.

Going from TACGTAAA to AATTATGG, the “PBM E-score” value rises from -0.0476 to 0.108.

Going from CCAGCCCC to TGGTCAAA, the “PBM E-score” value rises from -0.228 to 0.2.

Going from AAACTTAT to AGGCAAGA, the “PBM E-score” value falls from 0.236 to -0.112.

Compared with TGGGTCAA, CGACGACG is higher in “PBM E-score” value: -0.147 for the first, -0.0826 for the second.

Compared with CATCCGCA, CTTTATTA is lower in “PBM E-score” value: 0.108 for the first, 0.0076 for the second.

Compared with CGAAAATA, GAGAGTTA is lower in “PBM E-score” value: 0.274 for the first, -0.0682 for the second.

Going from ATCTCTTC to ACTCGCGC, the “PBM E-score” value rises from 0.0858 to 0.115.

First: CCATTACC
Second: AGATCAGC
The “PBM E-score” value of the first is lower: -0.0702 for the first, 0.13 for the second.

First: CGCGACGA
Second: CAAGCTAG
The “PBM E-score” value of the first is higher: 0.0584 for the first, -0.16 for the second.

First: CAAACACA
Second: AGGTCGCC
The “PBM E-score” value of the first is higher: 0.189 for the first, -0.107 for the second.

Compared with AGAGTAGA, CACGTTCC is lower in “PBM E-score” value: 0.109 for the first, -0.176 for the second.

First: ACCGGTTC
Second: CATCTAGC
The “PBM E-score” value of the first is higher: 0.0994 for the first, -0.092 for the second.

First: ATGAAGCG
Second: CCAATGGG
The “PBM E-score” value of the first is higher: -0.273 for the first, -0.308 for the second.

Going from AGACCTTA to TATAATAA, the “PBM E-score” value rises from -0.0358 to 0.324.

Compared with AGATTACG, TTTCCAAA is higher in “PBM E-score” value: 0.0921 for the first, 0.138 for the second.

First: CACGGCCG
Second: GATTTTGA
The “PBM E-score” value of the first is higher: 0.272 for the first, 0.268 for the second.

Compared with AATTTATG, AGGACGAC is lower in “PBM E-score” value: 0.307 for the first, -0.234 for the second.

Compared with CATACGCA, GTTGATGA is higher in “PBM E-score” value: 0.0352 for the first, 0.0524 for the second.

Compared with TATATAAA, ACCTCACC is lower in “PBM E-score” value: 0.289 for the first, -0.175 for the second.

Compared with CATTCTCA, ACTCATGA is lower in “PBM E-score” value: 0.133 for the first, -0.0549 for the second.

First: CACACAGG
Second: GTGTGTGA
The “PBM E-score” value of the first is lower: -0.175 for the first, -0.0295 for the second.

Going from ATGGCAAC to GAATGGTA, the “PBM E-score” value falls from 0.118 to -0.0523.

First: AAATCGTA
Second: GTTCTTCA
The “PBM E-score” value of the first is lower: -0.0583 for the first, 0.133 for the second.

Compared with ACCAGTTA, CGCTGTCA is lower in “PBM E-score” value: -0.0744 for the first, -0.195 for the second.

Going from AATCCTCG to CCGTTTAA, the “PBM E-score” value rises from -0.0543 to 0.129.

First: AGTGTCTC
Second: GATGTTGC
The “PBM E-score” value of the first is lower: -0.0921 for the first, 0.11 for the second.

Going from ACAGACTC to GCTGCCAA, the “PBM E-score” value rises from -0.121 to -0.0171.

Going from ATATGGCA to CACCCACG, the “PBM E-score” value rises from -0.15 to -0.0259.

Compared with CAGGGTCG, CTCTTTTA is higher in “PBM E-score” value: -0.179 for the first, -0.15 for the second.

Going from AAAGATCC to AGGTTCCG, the “PBM E-score” value rises from -0.0421 to 0.285.

Compared with TGCACAAA, AGCCATAC is lower in “PBM E-score” value: 0.0946 for the first, -0.199 for the second.

Compared with CCCGGATC, CACTGCAC is lower in “PBM E-score” value: 0.318 for the first, -0.158 for the second.

Compared with AGTTCTTG, AAGATCGT is lower in “PBM E-score” value: 0.193 for the first, -0.163 for the second.

Going from ATGGTAAA to CGGAATAA, the “PBM E-score” value rises from 0.0619 to 0.25.

First: CTTTTTAC
Second: CGGTCTAG
The “PBM E-score” value of the first is higher: 0.163 for the first, -0.0149 for the second.

First: GGAGGGCA
Second: AAAATACG
The “PBM E-score” value of the first is lower: -0.192 for the first, 0.142 for the second.

Compared with CAATTTCA, CAGTACTG is higher in “PBM E-score” value: -0.0518 for the first, 0.0131 for the second.

Going from ATGGATGC to ATTAACCG, the “PBM E-score” value rises from -0.164 to 0.335.

Going from GACTCTAC to TACTGGAA, the “PBM E-score” value rises from -0.215 to 0.0649.

Going from AAGGGGGG to ACTAGGGC, the “PBM E-score” value rises from -0.374 to -0.235.

First: CGCCGCCG
Second: ATCCAAAG
The “PBM E-score” value of the first is higher: 0.196 for the first, 0.0702 for the second.

First: CACAGCGC
Second: GTCCTAAC
The “PBM E-score” value of the first is higher: -0.0127 for the first, -0.0183 for the second.

Compared with CAATCGTA, ACGTGCAT is lower in “PBM E-score” value: 0.0527 for the first, -0.154 for the second.

First: CTAGCACA
Second: ACTTCCCC
The “PBM E-score” value of the first is higher: -0.195 for the first, -0.247 for the second.

Going from TTCGACAA to CGAGTAAC, the “PBM E-score” value rises from 0.0961 to 0.131.

First: CCCCAACG
Second: GGACCCTA
The “PBM E-score” value of the first is higher: -0.0186 for the first, -0.187 for the second.

Going from GCTGCGGA to GTGTATCA, the “PBM E-score” value rises from 0.038 to 0.123.

First: CAGCACAC
Second: ACAACAAG
The “PBM E-score” value of the first is lower: -0.282 for the first, -0.0802 for the second.

Compared with AAGTTAGG, AGTGTCAG is lower in “PBM E-score” value: 0.00351 for the first, -0.114 for the second.

First: ACTCCATC
Second: ACTCGTCA
The “PBM E-score” value of the first is higher: 0.196 for the first, -0.144 for the second.

Going from CTTAGGGA to CAGTAACC, the “PBM E-score” value rises from -0.156 to 0.0669.

Going from GGTTATCA to CTTCTGGC, the “PBM E-score” value falls from -0.0425 to -0.0939.

Going from AACTTTGT to ATTCCCCA, the “PBM E-score” value falls from 0.0071 to -0.238.

Compared with CACGGGCA, GTGGTGAA is higher in “PBM E-score” value: -0.163 for the first, -0.0601 for the second.

Compared with TGCAACCA, CCTGGACA is lower in “PBM E-score” value: -0.101 for the first, -0.164 for the second.

Compared with CCTAGTAC, CTGCACCA is lower in “PBM E-score” value: -0.085 for the first, -0.226 for the second.

Going from CCAGGCAA to CTTTTGTA, the “PBM E-score” value rises from -0.0874 to 0.0775.

Going from AGCGAGAC to CTCATGCC, the “PBM E-score” value falls from -0.185 to -0.186.

Compared with ACGACGGG, CGCCGTGA is higher in “PBM E-score” value: -0.0926 for the first, 0.064 for the second.

First: CACGGGGC
Second: AGAGGTCA
The “PBM E-score” value of the first is higher: -0.0464 for the first, -0.126 for the second.

Compared with ATATAATA, CACGCGTC is lower in “PBM E-score” value: 0.302 for the first, 0.0952 for the second.

Going from GGGTAACA to CGCCATGC, the “PBM E-score” value rises from -0.166 to -0.0946.

Compared with ATCACTTC, CCCTTAAC is lower in “PBM E-score” value: 0.0149 for the first, -0.289 for the second.

First: AGACCCTC
Second: CGCCTTAA
The “PBM E-score” value of the first is lower: -0.147 for the first, 0.0453 for the second.

First: CGTGGAAG
Second: GGGGGACA
The “PBM E-score” value of the first is higher: 0.057 for the first, -0.22 for the second.

Compared with CATTCACG, GGTGTGGA is lower in “PBM E-score” value: 0.138 for the first, -0.0676 for the second.

First: GGACCTAA
Second: GCTCTGCC
The “PBM E-score” value of the first is higher: 0.0719 for the first, -0.0356 for the second.

Compared with CCCTAGCA, CGACGAAG is higher in “PBM E-score” value: -0.267 for the first, 0.114 for the second.

Compared with GTGTAGAA, CTATAGAC is lower in “PBM E-score” value: -0.0588 for the first, -0.135 for the second.

First: GGTTTGCA
Second: AGCTTGGG
The “PBM E-score” value of the first is higher: 0.05 for the first, 0.0196 for the second.

Compared with ACTACCTA, GAAATGAA is higher in “PBM E-score” value: -0.0472 for the first, 0.245 for the second.

Compared with CAGAATGA, ATCCTTGC is lower in “PBM E-score” value: 0.0587 for the first, -0.0624 for the second.

Compared with AACCATTG, CCAAAGCA is higher in “PBM E-score” value: -0.0191 for the first, 0.0491 for the second.

Going from AATTACCC to CCAGAACC, the “PBM E-score” value falls from -0.0393 to -0.081.

Compared with TGGCTCAA, AATCTGAT is higher in “PBM E-score” value: -0.0833 for the first, 0.0842 for the second.

First: CCTCTTAC
Second: CGTTCAAA
The “PBM E-score” value of the first is lower: -0.131 for the first, 0.149 for the second.

Compared with CATTGCGA, AGTTCCTG is lower in “PBM E-score” value: -0.106 for the first, -0.18 for the second.

First: CATTGAGA
Second: GGATTCCC
The “PBM E-score” value of the first is higher: 0.021 for the first, -0.173 for the second.

First: GGGTTAAC
Second: AGCAAACA
The “PBM E-score” value of the first is higher: 0.169 for the first, -0.00612 for the second.
